# Laboratory results taken from the supplement of paper PMC11150407.
# Hit rate of the full screen: of about 3,000 compounds, about 45 (2%) showed an effect of 50% or more. Some of the results follow.
# System: MOLM1 and UCSD/AML1 (averaged)
# Experiment: cell viability relative to DMSO control (POC); higher = less growth inhibition
# Settings: 1 µM; 72 h
# Protocol: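 Primary viability screen in the 3q26 EVI1-high AML cell lines MOLM1 and UCSD/AML1, compounds at 1 uM for 72 h. ATP CellTiter-Glo read-out given as percent viable over DMSO control (POC), averaged over duplicates. This mapping covers the TimTec NDL-3000 natural derivative library, whose compounds are identified by TimTec catalogue codes (ST...).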
row,Compound,cell viability
1,CCOC(=O)C1CC(c2ccccc2)N2CCCC12 (centres undefined),94.5%
2,CCc1ccc2[nH]c(=O)cc(C)c2c1,103%
3,CCCCOC(=O)C1=C(C)NC(=O)NC1c1cc(Cl)c(O)c(OC)c1 (centres undefined),94.5%
4,O=C(CSc1nc2ccccc2c(=O)[nH]1)Nc1ccc(F)c(Cl)c1,87.7%
5,CNC(=S)NCc1cc(OC)c(OC)c(OC)c1,97.9%
6,CCOc1cc(C2C(C(=O)OCCc3ccccc3)=C(C)NC3=C2C(=O)CC(c2ccc(OC)cc2)C3)ccc1O (centres undefined),109%
7,COc1ccc(NC(=O)CSc2nc3c(=O)[nH]cnc3n2C)cc1,86.1%
8,COc1cc(O)c(C(=O)/C=C/c2ccco2)c(OC)c1,112%
9,COc1ccc(C(=O)CCNc2ccc(-c3nncn3C)cc2)cc1OC,102%
10,Cc1ccc(N=Cc2c(O)c3ccccc3oc2=O)cc1C,102%
11,O=C(Cn1c(=O)cc(C(=O)N2CCc3ccccc3C2)c2ccccc21)Nc1cccc(Cl)c1,101%
12,COc1cc(C(C)=O)ccc1OCc1ccc(Cl)cc1,88.6%
13,COc1ccc(/C=C/C(=O)c2ccc3c(c2)OCCO3)cc1COc1ccccc1,82.5%
14,Cn1c(=O)cc(O)c2ccccc21,109%
15,COC(=O)c1cc2c([nH]c3ccccc32)c(C)n1,90%
16,CC(=O)OC1CCC2(C)C3CCC4(C)C(CC5CCCCC54C(C)=O)C3CC3OC32C1 (centres undefined),89.4%
17,Cc1ccc(-n2c(SCC(=O)Nc3cccc(Br)c3)nc3c(=O)[nH]cnc32)cc1,99.5%
18,COc1ccc(C(=O)NCCOc2ccc(C)cc2)cc1OC,101%
19,O=C(CSc1nc2ccccc2c(=O)[nH]1)NCCCc1ccccc1,102%
20,COc1ccc(C(=O)CCS(=O)(=O)c2ccc(Cl)cc2)cc1OC,67.8%
21,NC(=O)NC(Cc1c[nH]c2ccccc12)C(=O)O (centres undefined),98.1%
22,O=c1c(-c2ccccc2)coc2c(CN3CCOCC3)c(O)ccc12,100%
23,Cc1cccc(NC(=O)CSc2nc3ccccc3c(=O)[nH]2)c1C,105%
24,O=C1ON=C(c2ccccc2)/C1=C/c1ccc(O)cc1,100%
25,N[C@@H](Cc1ccc(Cl)cc1)C(=O)O,101%
26,COc1cc2oc(=O)c(CC(=O)NCc3ccc(Cl)cc3)c(C)c2cc1OC,97.9%

# Three structures out of the list, ordered by count of non-hydrogen atoms, rising:
row,Compound,cell viability
23,Cc1cccc(NC(=O)CSc2nc3ccccc3c(=O)[nH]2)c1C,105%
19,O=C(CSc1nc2ccccc2c(=O)[nH]1)NCCCc1ccccc1,102%
26,COc1cc2oc(=O)c(CC(=O)NCc3ccc(Cl)cc3)c(C)c2cc1OC,97.9%

# The results go on.

row,Compound,cell viability
1,COc1ccc2c(c1)OC(c1ccccc1)CC2=O (centres undefined),105%
2,CCOc1cc(C2C(C(=O)OCCc3ccccc3)=C(C)NC3=C2C(=O)CC(C)(C)C3)cc(Br)c1O (centres undefined),94.9%
3,O=c1oc2cc(O)ccc2cc1-c1ccc(Br)cc1,104%
4,COc1ccc(C(=O)Nc2ccc(-n3nc(C)cc3Cl)cc2)cc1OC,99.9%
5,COC(=O)C(NS(=O)(=O)c1ccc2ccccc2c1)C(O)c1ccccc1 (centres undefined),97.1%
6,CC(=O)C12CCCCC1CC1C3CC4OC45CC(O)CCC5(C)C3CCC12C (centres undefined),96.3%
7,O=C(/C=C/c1cccs1)c1ccc2c(c1)OCO2,97.2%
8,COc1ccc2[nH]c(C)c(CCNC(=O)C3CCCCC3C(=O)OCC(F)(F)F)c2c1 (centres undefined),98.3%
9,COc1ccc2c(c1OC)C(=O)OC2C[N+](=O)[O-] (centres undefined),92.7%
10,O=C(O)/C(=C/C(=O)c1ccccc1)Nc1ccc(OC(F)(F)F)cc1,108%
11,CCOc1ccc(-c2cc(=O)c3cc(C)cc(C)c3o2)cc1OC,97.3%
12,CC(=O)NC1C(OCc2ccccc2)OC(CO)C(O)C1O (centres undefined),112%
13,COC(=O)C1CC23CCCN4CCC5(c6ccccc6NC15CC2)C43 (centres undefined),98.1%
14,COc1ccc(/C=C/C(=O)Oc2ccc(C(C)C)cc2)c(OC)c1,101%
15,Cc1ccc(CNC(=O)CSc2nc3c(=O)[nH]cnc3n2-c2ccc(C)cc2)cc1,119%
16,COc1ccc(Cl)cc1NC(=O)CSc1nc2c(=O)[nH]cnc2n1CC1CCCO1 (centres undefined),93%
17,Nc1cc(=O)[nH]c(SCC(=O)Nc2c(Cl)cccc2Cl)n1,82.7%
18,CCCCCCCCC(CCCCCCCCCCC(=O)O)C(=O)O (centres undefined),99.5%
19,COc1cc(-c2nnc(SCC(=O)N(C)C)n2-c2ccc3c(c2)OCO3)cc(OC)c1OC,98.8%
20,Cc1ccc2c(CN3CCN(C(=O)OC(C)(C)C)CC3)cc(=O)oc2c1,14.9%
21,O=C(NCCc1c[nH]c2ccccc12)OCc1ccc([N+](=O)[O-])cc1,98.3%
22,CCOC(=O)/C(C#N)=C/c1ccc(N(CC)CC)cc1,105%
23,COc1ccc(CNC(=O)c2n[nH]c(=O)c3ccccc23)cc1OC,90%
24,Cc1cc(I)ccc1NC(=O)C(Cc1c[nH]c2ccccc12)NC(=O)OCc1ccccc1 (centres undefined),80.3%
25,COc1ccc(C)cc1NC(=O)CSc1nc2c(=O)[nH]cnc2n1C,98.4%
26,COc1ccc(C(=O)Nc2c(OC)c(OC)cc3c2C(=O)OC3)cc1OC,92%

row,Compound,cell viability
1,CCCCCOc1ccc(C2=NOC(=O)/C2=C\c2cc([N+](=O)[O-])ccc2O)cc1,92.2%
2,CCC1C/C(=C\c2ccc(OC)cc2)C(=O)/C(=C/c2ccc(OC)cc2)C1 (centres undefined),12.8%
3,N#C/C(=C\c1ccc(-c2cc(C(=O)O)ccc2Cl)o1)C(=O)NCCc1c[nH]c2ccccc12,112%
4,CCn1c(=O)c(-c2ccc3ccccc3n2)cc2cc(Cl)ccc21,105%
5,COc1cccc(NC(=O)CSc2nc3c(=O)[nH]cnc3n2-c2ccc(C)cc2)c1,96.5%
6,O=C(Oc1ccc2oc(-c3ccco3)cc(=O)c2c1)c1cccs1,106%
7,Oc1ccc(C2NCCc3c2[nH]c2ccccc32)cc1 (centres undefined),89.9%
8,Cc1ccc(NC(=O)CN2C(=O)N/C(=C/c3cc4c(cc3Cl)OCO4)C2=O)cc1,91.5%
9,Cc1ccc(OCCSc2ncnc3nc[nH]c23)cc1C,99.8%
10,O=C(Nc1ccccc1F)C1=Cc2ccccc2OC1,91.1%
11,Cc1[nH]c2ccc(OCc3ccccc3)cc2c1CCNC(=O)c1ccnn1C,92.8%
12,COc1cc(C(=O)Nc2ccc(CN3CCCC3)cc2)cc(OC)c1OC,87.4%
13,CCCNC(=O)c1cc(=O)n(CC(=O)Nc2ccc(Br)cc2)c2ccccc12,107%
14,CO[C@@H]1CC2C3CC=C4CC(O[Si](C)(C)C(C)(C)C)CCC4(C)C3CCC2(C)C1C(C)=O (some centres undefined),94.4%
15,CCCCCOc1ccc(C2=NOC(=O)/C2=C\c2ccc(OCCCC)cc2)cc1,99.1%
16,O=C(OC[C@@H]1O[C@@](O)(COC(=O)c2cccnc2)[C@H](OC(=O)c2cccnc2)[C@H]1OC(=O)c1cccnc1)c1cccnc1,90.2%
17,COC1CCCC(C)O1 (centres undefined),65.8%
18,COc1ccc(CNC(=O)C2Cc3ccccc3CN2S(=O)(=O)c2cccs2)cc1 (centres undefined),97.3%
19,Cc1ccc(NC(=O)c2cc3cc(Cl)ccc3oc2=N)cc1C,93.6%
20,Cc1ccc(NC(=O)COc2ccc3c(=O)c(Oc4ccc(C(C)(C)C)cc4)coc3c2)cc1,102%
21,COc1cc(NS(=O)(=O)c2ccc(N/C=C3\C(=O)C(O)=C(C(C)C)c4cc(C)c(-c5c(C)cc6c(c5O)/C(=C/Nc5ccc(S(=O)(=O)Nc7cc(OC)nc(OC)n7)cc5)C(=O)C(O)=C6C(C)C)c(O)c43)cc2)nc(OC)n1,101%
22,COc1ccc(C(NC(=O)C(C)C)c2nccc3cc(OC)c(OC)cc23)cc1OC (centres undefined),90.8%
23,COc1cc(OC)cc(C(=O)Nc2ccccc2S(=O)(=O)N2CCCC2OC(C)=O)c1 (centres undefined),92.3%
24,O=c1cc(O)c2cc(Cl)ccc2o1,101%
25,COc1ccc2c(=O)cc(-c3ccccc3)oc2c1OC,94%
26,Cc1ccc(-c2cc(=O)c3cc(Cl)c(C)cc3o2)cc1,116%

row,Compound,cell viability
1,CCOc1ccc(/C=N/OC(=O)/C=C\c2ccccc2)cc1,102%
2,COc1ccc(OCc2cc(C=O)ccc2OC)cc1,107%
3,COc1ccc(CCNC(=O)C2CCCCC2C(=O)O)cc1OC (centres undefined),102%
4,Cc1ccc2c(CN3CCN(Cc4cccc(C#N)c4)CC3)cc(=O)oc2c1,93.6%
5,CC(=O)OC1CCC2(C)C(CCC3(C)C2C(=O)C=C2C4CC(C)(C(=O)Nc5ccccc5O)CCC4(C)CCC23C)C1(C)C (centres undefined),93.9%
6,O=c1cc(-c2ccc(Br)cc2)oc2ccc(Cl)cc12,96%
7,CCOC(=O)c1sc(N2N=C(C)/C(=C\c3cc4c(cc3OC)OCO4)C2=O)nc1C,97.3%
8,COC(=O)C1Cc2c([nH]c3ccccc23)CN1 (centres undefined),107%
9,CCOC(=O)C(Cc1c[nH]c2ccccc12)NC(=O)C(F)(F)C(F)F (centres undefined),94.9%
10,CCOC(=O)CCC(=O)Nc1ccc(C(=O)OCC)cc1,105%
11,CCCOc1ccc(NCCC(=O)c2ccc3c(c2)OCO3)cc1,98.9%
12,COC(=O)c1ccc2c(c1)C(=O)/C(=C/c1ccc(OCCC(C)C)cc1)O2,100%
13,O=C(NC1(C(F)(F)F)C(=O)Nc2c1c(=O)[nH]c(=O)n2-c1ccc(F)cc1)c1cccc(Cl)c1 (centres undefined),105%
14,CCC(CC)c1nc(Nc2ccc(C)c(Cl)c2)c2ccccc2n1,72.3%
15,Cc1cc2c(C(C)C)c(O)c(O)c(/C=N\N3CCCC3Cc3ccco3)c2c(O)c1-c1c(C)cc2c(C(C)C)c(O)c(O)c(/C=N\N3C(C)CCC3Cc3ccco3)c2c1O (centres undefined),91.5%
16,CC(=O)c1c(C)n(CCOc2ccc(Cl)cc2C)c2ccc(O)cc12,86.6%
17,COc1ccc(OC)c2c(C)cc(SCC(=O)c3ccc4c(c3)OCCO4)nc12,101%
18,COc1ccc(C(=O)NC(c2ccccc2)c2ccc(Cl)cc2)cc1OC (centres undefined),75.6%
19,O=C(NC(Cc1c[nH]c2ccccc12)C(=O)O)c1ccc(C23CC4CC(CC(C4)C2)C3)cc1 (centres undefined),93.7%
20,COc1ccc(OC)c(/C=C/C(=O)c2ccc3c(c2)OCO3)c1,86.1%
21,CCOC(=O)C(Cc1c[nH]c2ccccc12)NC(=O)c1ccc([N+](=O)[O-])cc1Cl (centres undefined),92.1%
22,O=C(COCC1CCCN2CCCCC12)Oc1ccccc1 (centres undefined),99.7%
23,CCOc1ccc(-c2nc(CSc3nc4ccccc4c(=O)[nH]3)c(C)o2)cc1,103%
24,CN(CCO)Cc1c(NC(=O)c2ccccc2)sc2c1CCCC2,85.2%
25,O=C(N/N=C/c1cc(N=Nc2cccc(C(F)(F)F)c2)ccc1O)c1ccc2c(c1)OCO2,21.3%
26,CCCCCCCOC(=O)COCC1CCC[N+]2(C)CCCCC12 (centres undefined),95.1%
